Experimental data: PubChem BioAssay AID652272 (Drosophila RNAi Screening Center, 2013)

Aim: 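Genome-wide knock-down search for components of Hedgehog signalling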 (primary screen)
Cells: Drosophila clone 8 (Cl8) cells
Knock-down reagent: long dsRNA against Drosophila genes
Measured: 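Firefly light from a Hedgehog-responsive ptc promoter reporter and Renilla reference light, both read on a plate reader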
Direction: firefly Hh reporter signal: higher = more ptc reporter light; Renilla reference signal: higher = more Renilla control light
Rule for the call: 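Called a hit if the two-replicate mean z-score lies below -2 or above +3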
Meaning of the calls: active = hit: reporter lowered or raised; inactive = not a hit
The screen tested about 21,000 reagents; shown is an unselected part of those with a known target gene and a result. Over the whole deposit, 503 (2.4%) are marked active. 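Raw plate light values, not normalised; calls rest on replicate z-scores that were not deposited; hits include reporter decreases as well as increases.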 The numbers tell different reagents against one gene apart. Names joined by + are all predicted targets of the reagent. No sequences are given here. Not given: the amount of reagent, the time to read-out.

| firefly Hh reporter signal, replicate 1 | firefly Hh reporter signal, replicate 2 | firefly Hh reporter signal, replicate 3 | Renilla reference signal, replicate 1 | Renilla reference signal, replicate 2 | call | gene knocked down | dsRNA no. |
| --- | --- | --- | --- | --- | --- | --- | --- |
| 98683 | 3.39e5 | – | 2115 | 13936 | inactive | ATP8 (retired record) | 1 |
| 41144 | 89034 | – | 1589 | 3133 | inactive | glob2 | 1 |
| 1.22e5 | 58772 | – | 3368 | 6316 | inactive | CG34367 | 1 |
| 86797 | 61417 | – | 2432 | 5349 | inactive | CG34367 | 2 |
| 58405 | 32683 | – | 1456 | 2184 | inactive | Ptp52F | 1 |
| 1.16e5 | 1.09e5 | – | 4924 | 3971 | inactive | CG6204 | 1 |
| 1.05e5 | 73920 | – | 4460 | 2723 | inactive | CG7565 | 1 |
| 1.10e5 | 86914 | – | 4169 | 2154 | inactive | CG4815 | 1 |
| 1.04e5 | 44119 | – | 2123 | 2034 | inactive | CG18190 | 1 |
| 1.68e5 | 69371 | – | 4081 | 7187 | inactive | ND-B14.5B | 1 |
| 96054 | 63997 | – | 3955 | 2708 | inactive | CG3306 | 1 |
| 94112 | 69922 | – | 3368 | 2209 | inactive | CG1227 | 1 |
| 40677 | 56981 | 61371 | 4539 | 4225 | inactive | SP | 1 |
| 1.25e5 | 1.03e5 | – | 5124 | 4016 | inactive | Dph5 | 1 |
| 46051 | 1.76e5 | – | 10343 | 4250 | inactive | Lk6 | 1 |
| 1.47e5 | 95976 | – | 6144 | 3949 | inactive | Lk6 | 2 |
| 53349 | 48296 | – | 1556 | 3062 | inactive | CG9192 | 1 |
| 62628 | 58466 | – | 1405 | 1652 | inactive | eIF2alpha | 1 |
| 78900 | 2.25e5 | – | 579 | 8721 | inactive | CG12609 | 1 |
| 1.62e5 | 8.65e5 | 1.48e5 | 3449 | 47907 | inactive | CG4653 | 1 |
| 95588 | 28155 | – | 3553 | 199 | inactive | CG32271 | 1 |
| 1.15e5 | 98562 | – | 4311 | 4009 | inactive | Cyp28a5 | 1 |
| 8.18e5 | 1.61e5 | – | 46364 | 551 | inactive | tHMG2 | 1 |
| 5.58e5 | 1.69e5 | – | 29043 | 17177 | inactive | mRpL35 | 1 |
| 66344 | 1.86e5 | – | 1824 | 7718 | inactive | CG14269 | 1 |
| 65031 | 43136 | – | 1746 | 3037 | inactive | Klp54D | 1 |
| 66146 | – | – | 3366 | 2224 | inactive | Best3 | 1 |
| 67473 | 31427 | – | 4036 | 2261 | active | Srp54 | 1 |
| 1.12e5 | 46631 | – | 4870 | 1831 | inactive | IntS1 | 1 |
| 77675 | 42627 | – | 3450 | 2280 | inactive | Bdp1 | 1 |
| 70978 | 59206 | – | 3296 | 2139 | inactive | dgt3 | 1 |
| 94866 | 77685 | – | 3712 | 2946 | inactive | scaf | 1 |
| 96841 | 88906 | – | 4119 | 2042 | inactive | CG10405 | 1 |
| 87958 | – | – | 2029 | 2396 | inactive | CG13471 | 1 |
| 57696 | 5.28e5 | 60705 | 2375 | 32381 | inactive | CR12628 + Mgstl | 1 |
| 1.49e5 | 3.03e5 | – | 5900 | 13570 | inactive | CR12628 + Mgstl | 2 |
| 1.01e5 | 90853 | – | 2681 | 2001 | inactive | CG8578 | 1 |
| 58677 | 75603 | – | 2470 | 3211 | inactive | fusl | 1 |
| 1.08e5 | 3.52e5 | – | 2264 | 13318 | inactive | Lsm12a | 1 |
| 1.01e5 | 64385 | – | 3930 | 2400 | inactive | Pph13 | 1 |
| 63124 | 60720 | – | 1337 | 4306 | inactive | CG33017 | 1 |
| 59952 | 48810 | – | 1421 | 3826 | inactive | CG33017 | 2 |
| 1.13e5 | 1.07e5 | – | 4513 | 3746 | inactive | D1 | 1 |
| 6.56e5 | 2.07e5 | – | 30796 | 8208 | inactive | CG34124 | 1 |
| 59319 | 40381 | – | 2156 | 3393 | inactive | CG13926 | 1 |
| 81232 | 39741 | – | 2205 | 3724 | inactive | stol | 1 |
| 1.04e5 | 87981 | – | 3555 | 1777 | inactive | mRpL32 | 1 |
| 36823 | 45397 | 46938 | 3584 | 3672 | inactive | CG32075 | 1 |
| 85448 | 4.16e5 | – | 1349 | 14480 | inactive | Ugt35D1 | 1 |
| 1.87e5 | 1.24e5 | – | 7623 | 4689 | inactive | CG7506 | 1 |
| 1.22e5 | 76339 | – | 4843 | 3389 | inactive | mas | 1 |
| 1.14e5 | 77456 | – | 4723 | 3238 | inactive | Pisd | 1 |
| 79034 | 1.60e5 | – | 877 | 5853 | inactive | CG13021 | 1 |
| 79248 | 53733 | – | 2965 | 2183 | inactive | gwl | 1 |
| 89175 | 1.38e5 | – | 3316 | 4008 | inactive | NijC | 1 |
| 1.76e5 | – | – | 3945 | – | inactive | CG33285 | 1 |
| 1.24e5 | 57063 | – | 3408 | 5824 | inactive | CG14537 | 1 |

9 consecutive reagents from above, quoted:
| firefly Hh reporter signal, replicate 1 | firefly Hh reporter signal, replicate 2 | firefly Hh reporter signal, replicate 3 | Renilla reference signal, replicate 1 | Renilla reference signal, replicate 2 | call | gene knocked down | dsRNA no. |
| --- | --- | --- | --- | --- | --- | --- | --- |
| 63124 | 60720 | – | 1337 | 4306 | inactive | CG33017 | 1 |
| 59952 | 48810 | – | 1421 | 3826 | inactive | CG33017 | 2 |
| 1.13e5 | 1.07e5 | – | 4513 | 3746 | inactive | D1 | 1 |
| 6.56e5 | 2.07e5 | – | 30796 | 8208 | inactive | CG34124 | 1 |
| 59319 | 40381 | – | 2156 | 3393 | inactive | CG13926 | 1 |
| 81232 | 39741 | – | 2205 | 3724 | inactive | stol | 1 |
| 1.04e5 | 87981 | – | 3555 | 1777 | inactive | mRpL32 | 1 |
| 36823 | 45397 | 46938 | 3584 | 3672 | inactive | CG32075 | 1 |
| 85448 | 4.16e5 | – | 1349 | 14480 | inactive | Ugt35D1 | 1 |
